Source: article PMC2763855

Chains of the proteins cited; added tags and fusions are not shown. Lines headed by an entry give the natural chain unless they say otherwise; changes in a name come on top.
UniProt P08631: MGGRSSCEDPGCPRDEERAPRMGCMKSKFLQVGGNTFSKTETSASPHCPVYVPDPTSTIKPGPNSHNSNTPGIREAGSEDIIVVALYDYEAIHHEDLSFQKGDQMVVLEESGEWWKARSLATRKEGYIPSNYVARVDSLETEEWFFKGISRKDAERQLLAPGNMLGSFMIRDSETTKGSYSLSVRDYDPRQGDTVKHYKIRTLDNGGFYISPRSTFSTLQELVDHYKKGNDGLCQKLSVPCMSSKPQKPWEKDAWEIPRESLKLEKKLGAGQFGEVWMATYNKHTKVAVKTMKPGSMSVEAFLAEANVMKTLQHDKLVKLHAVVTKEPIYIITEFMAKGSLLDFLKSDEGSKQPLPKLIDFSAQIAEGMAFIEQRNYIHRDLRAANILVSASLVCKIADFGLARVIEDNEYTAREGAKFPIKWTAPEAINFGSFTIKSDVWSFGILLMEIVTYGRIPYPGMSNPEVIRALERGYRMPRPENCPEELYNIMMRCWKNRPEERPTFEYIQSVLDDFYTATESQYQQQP
UniProt A6NJZ7: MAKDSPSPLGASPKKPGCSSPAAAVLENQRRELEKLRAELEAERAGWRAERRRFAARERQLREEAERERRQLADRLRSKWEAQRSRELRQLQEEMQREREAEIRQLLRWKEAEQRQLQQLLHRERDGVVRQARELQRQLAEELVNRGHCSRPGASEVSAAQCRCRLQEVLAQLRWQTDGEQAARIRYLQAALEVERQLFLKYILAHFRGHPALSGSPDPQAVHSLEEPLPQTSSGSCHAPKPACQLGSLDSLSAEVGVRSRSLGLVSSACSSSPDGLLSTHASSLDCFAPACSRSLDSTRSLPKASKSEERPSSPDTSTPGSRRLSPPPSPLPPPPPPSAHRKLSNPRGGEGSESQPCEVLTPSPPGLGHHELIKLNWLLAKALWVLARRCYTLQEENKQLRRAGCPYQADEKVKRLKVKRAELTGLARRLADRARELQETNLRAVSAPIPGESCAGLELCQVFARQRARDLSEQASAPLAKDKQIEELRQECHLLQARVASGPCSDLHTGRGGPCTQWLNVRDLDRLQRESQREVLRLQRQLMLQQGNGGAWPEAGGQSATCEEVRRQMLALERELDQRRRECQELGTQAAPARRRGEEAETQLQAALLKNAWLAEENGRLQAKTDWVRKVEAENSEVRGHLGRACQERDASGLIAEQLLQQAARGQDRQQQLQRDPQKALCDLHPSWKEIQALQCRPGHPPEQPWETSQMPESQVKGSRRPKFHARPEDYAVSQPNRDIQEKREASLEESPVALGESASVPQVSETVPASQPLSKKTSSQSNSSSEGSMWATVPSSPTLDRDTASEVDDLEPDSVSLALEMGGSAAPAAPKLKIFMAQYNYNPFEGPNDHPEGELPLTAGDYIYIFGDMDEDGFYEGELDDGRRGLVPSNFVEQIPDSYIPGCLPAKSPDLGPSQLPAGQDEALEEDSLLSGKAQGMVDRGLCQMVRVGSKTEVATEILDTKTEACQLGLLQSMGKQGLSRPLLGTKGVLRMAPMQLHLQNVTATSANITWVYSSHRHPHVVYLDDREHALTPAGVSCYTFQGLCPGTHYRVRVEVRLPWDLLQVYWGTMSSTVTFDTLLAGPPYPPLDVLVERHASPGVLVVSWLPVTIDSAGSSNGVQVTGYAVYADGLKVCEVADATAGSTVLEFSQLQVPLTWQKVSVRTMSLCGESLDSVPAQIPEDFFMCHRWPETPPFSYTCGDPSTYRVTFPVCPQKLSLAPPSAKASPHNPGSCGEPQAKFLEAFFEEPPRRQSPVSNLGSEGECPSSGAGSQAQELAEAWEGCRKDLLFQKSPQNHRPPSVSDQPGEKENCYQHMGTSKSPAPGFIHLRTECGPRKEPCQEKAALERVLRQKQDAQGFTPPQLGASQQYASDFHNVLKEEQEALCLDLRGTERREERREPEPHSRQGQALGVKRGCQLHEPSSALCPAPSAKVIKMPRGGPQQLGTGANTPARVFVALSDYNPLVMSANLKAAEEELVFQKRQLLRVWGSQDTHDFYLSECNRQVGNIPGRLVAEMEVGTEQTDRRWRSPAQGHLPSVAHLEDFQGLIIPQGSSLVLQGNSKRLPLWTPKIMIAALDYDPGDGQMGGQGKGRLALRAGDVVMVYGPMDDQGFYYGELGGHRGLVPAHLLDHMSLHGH
UniProt Q9NZM3: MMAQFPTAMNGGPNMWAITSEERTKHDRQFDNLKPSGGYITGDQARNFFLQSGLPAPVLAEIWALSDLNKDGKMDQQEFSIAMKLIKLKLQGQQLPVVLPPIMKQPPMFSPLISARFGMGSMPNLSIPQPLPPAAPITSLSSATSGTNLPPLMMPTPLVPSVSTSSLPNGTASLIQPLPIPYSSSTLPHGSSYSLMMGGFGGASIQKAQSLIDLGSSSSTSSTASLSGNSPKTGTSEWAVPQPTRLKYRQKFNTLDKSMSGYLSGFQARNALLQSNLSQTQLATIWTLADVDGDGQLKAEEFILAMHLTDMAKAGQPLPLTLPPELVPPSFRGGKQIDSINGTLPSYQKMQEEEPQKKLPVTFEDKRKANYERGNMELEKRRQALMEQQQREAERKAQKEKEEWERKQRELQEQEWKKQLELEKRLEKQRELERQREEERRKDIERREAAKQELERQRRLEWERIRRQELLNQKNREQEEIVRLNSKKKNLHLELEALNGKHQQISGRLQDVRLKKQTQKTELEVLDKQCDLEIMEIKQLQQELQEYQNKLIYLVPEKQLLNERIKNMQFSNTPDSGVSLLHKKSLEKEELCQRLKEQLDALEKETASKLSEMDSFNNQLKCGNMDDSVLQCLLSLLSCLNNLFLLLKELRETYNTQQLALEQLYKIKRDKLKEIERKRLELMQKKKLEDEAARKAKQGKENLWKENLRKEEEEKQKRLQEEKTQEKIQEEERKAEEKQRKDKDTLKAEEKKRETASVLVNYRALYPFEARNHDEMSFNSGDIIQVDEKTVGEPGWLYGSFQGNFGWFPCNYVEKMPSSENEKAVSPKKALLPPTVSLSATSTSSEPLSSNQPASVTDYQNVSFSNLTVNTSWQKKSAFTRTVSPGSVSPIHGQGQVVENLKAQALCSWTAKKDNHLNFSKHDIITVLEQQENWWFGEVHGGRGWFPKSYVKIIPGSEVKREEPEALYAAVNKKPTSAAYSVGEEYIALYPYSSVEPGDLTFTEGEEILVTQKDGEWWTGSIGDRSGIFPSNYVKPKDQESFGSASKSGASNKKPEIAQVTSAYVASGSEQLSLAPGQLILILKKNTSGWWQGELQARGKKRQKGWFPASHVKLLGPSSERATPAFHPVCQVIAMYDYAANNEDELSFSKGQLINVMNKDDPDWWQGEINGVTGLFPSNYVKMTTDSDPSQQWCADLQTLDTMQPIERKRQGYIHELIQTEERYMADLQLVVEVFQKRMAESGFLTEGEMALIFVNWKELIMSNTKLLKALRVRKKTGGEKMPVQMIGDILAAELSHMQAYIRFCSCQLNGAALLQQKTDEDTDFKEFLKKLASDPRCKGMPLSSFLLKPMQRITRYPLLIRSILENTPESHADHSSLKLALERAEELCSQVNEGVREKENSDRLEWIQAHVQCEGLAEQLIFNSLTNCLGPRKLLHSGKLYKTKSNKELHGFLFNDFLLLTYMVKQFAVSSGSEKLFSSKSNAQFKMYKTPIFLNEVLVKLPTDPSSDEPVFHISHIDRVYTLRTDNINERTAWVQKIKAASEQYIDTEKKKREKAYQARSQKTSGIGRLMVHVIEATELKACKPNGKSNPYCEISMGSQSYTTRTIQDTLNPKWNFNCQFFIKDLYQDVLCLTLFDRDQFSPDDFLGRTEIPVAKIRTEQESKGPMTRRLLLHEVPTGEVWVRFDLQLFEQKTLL
UniProt Q92882: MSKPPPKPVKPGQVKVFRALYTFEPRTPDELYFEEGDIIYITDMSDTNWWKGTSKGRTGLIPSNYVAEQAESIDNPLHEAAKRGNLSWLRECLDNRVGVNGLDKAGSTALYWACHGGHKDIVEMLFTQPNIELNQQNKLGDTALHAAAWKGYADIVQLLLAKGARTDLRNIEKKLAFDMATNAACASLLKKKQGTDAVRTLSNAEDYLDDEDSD
UniProt Q7Z6B7: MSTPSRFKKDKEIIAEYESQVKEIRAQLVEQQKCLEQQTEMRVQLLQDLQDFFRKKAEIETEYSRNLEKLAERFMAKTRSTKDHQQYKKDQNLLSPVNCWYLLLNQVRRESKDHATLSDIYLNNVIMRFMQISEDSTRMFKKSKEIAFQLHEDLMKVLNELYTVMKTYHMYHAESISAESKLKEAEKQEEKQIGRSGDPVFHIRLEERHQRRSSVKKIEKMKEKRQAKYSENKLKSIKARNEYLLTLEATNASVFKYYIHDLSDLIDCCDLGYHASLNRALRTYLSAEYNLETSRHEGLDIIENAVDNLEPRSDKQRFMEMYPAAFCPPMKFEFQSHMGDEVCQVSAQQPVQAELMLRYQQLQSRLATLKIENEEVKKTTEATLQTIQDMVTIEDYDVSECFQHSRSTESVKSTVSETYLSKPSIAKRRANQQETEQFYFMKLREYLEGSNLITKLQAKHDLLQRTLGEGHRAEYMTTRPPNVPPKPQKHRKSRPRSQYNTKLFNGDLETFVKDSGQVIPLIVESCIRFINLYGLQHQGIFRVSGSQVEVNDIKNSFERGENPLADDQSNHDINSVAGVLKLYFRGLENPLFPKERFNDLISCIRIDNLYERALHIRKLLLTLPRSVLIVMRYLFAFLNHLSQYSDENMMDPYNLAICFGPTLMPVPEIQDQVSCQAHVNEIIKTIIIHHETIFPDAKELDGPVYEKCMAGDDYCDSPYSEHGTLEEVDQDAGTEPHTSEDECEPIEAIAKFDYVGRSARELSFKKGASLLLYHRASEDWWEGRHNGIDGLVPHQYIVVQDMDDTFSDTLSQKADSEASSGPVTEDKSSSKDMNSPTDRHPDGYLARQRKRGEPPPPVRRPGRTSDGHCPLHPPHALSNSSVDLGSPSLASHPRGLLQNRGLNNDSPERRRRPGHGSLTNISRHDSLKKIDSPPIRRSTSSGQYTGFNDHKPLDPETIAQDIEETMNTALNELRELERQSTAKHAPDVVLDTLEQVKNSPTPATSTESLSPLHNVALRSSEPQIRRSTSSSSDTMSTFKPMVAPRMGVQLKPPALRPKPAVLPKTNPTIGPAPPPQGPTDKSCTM
UniProt P42680: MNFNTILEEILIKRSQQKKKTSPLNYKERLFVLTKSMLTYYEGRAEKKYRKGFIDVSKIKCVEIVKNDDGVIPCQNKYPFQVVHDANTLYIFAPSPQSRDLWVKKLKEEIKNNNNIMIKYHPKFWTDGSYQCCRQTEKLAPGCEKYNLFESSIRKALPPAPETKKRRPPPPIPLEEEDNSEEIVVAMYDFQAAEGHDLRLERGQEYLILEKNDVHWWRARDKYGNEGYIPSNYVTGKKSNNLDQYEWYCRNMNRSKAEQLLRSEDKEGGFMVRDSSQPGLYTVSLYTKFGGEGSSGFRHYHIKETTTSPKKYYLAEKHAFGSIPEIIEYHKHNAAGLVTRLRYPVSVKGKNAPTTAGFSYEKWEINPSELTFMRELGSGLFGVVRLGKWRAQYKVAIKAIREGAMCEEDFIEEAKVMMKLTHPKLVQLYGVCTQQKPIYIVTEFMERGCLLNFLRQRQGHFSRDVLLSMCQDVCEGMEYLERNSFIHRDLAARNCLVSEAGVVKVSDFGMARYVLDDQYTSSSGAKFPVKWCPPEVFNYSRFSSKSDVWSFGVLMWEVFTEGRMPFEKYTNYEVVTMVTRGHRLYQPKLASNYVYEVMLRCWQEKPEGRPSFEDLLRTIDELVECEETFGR
UniProt P06241: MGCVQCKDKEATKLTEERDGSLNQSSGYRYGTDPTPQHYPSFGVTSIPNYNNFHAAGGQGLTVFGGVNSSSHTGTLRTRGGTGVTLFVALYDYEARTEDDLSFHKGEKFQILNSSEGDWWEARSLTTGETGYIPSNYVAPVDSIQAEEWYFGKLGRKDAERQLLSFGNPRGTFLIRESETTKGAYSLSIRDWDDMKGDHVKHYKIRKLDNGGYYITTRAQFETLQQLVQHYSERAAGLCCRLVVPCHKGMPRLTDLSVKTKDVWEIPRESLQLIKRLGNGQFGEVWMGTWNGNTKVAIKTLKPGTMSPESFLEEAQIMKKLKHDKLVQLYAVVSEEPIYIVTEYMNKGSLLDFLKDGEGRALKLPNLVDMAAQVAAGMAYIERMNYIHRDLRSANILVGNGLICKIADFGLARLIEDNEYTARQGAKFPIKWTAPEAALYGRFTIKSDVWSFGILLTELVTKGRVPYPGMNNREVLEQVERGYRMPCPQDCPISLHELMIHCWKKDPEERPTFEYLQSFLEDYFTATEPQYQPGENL

T1: GST-hFasL(1-80) fusion protein (human) (UniProt P48023)
T1 sequence: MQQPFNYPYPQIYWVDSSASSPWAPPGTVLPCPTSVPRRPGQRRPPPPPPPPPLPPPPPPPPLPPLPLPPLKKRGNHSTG

B1: HA-tagged full length SNX33 (protein, UniProt Q8WV41 1-574)
chain: MALKGRALYDFHSENKEEISIQQDEDLVIFSETSLDGWLQGQNSRGETGLFPASYVEIVRSGISTNHADYSSSPAGSPGAQVSLYNSPSVASPARSGGGSGFLSNQGSFEEDDDDDWDDWDDGCTVVEEPRAGGLGTNGHPPLNLSYPGAYPSQHMAFRPKPPLERQDSLASAKRGSVVGRNLNRFSCFVRSGVEAFILGDVPMMAKIAETYSIEMGPRGPQWKANPHPFACSVEDPTKQTKFKGIKSYISYKLTPTHAASPVYRRYKHFDWLYNRLLHKFTVISVPHLPEKQATGRFEEDFIEKRKRRLILWMDHMTSHPVLSQYEGFQHFLSCLDDKQWKMGKRRAEKDEMVGASFLLTFQIPTEHQDLQDVEDRVDTFKAFSKKMDDSVLQLSTVASELVRKHVGGFRKEFQKLGSAFQAISHSFQMDPPFCSEALNSAISHTGRTYEAIGEMFAEQPKNDLFQMLDTLSLYQGLLSNFPDIIHLQKGAFAKVKESQRMSDEGRMVQDEADGIRRRCRVVGFALQAEMNHFHQRRELDFKHMMQNYLRQQILFYQRVGQQLEKTLRMYDNL

molecular target: Glutathione S-transferase (GST); test: pull-down; GST-hFasL(1-80) or GST with glutathione sepharose beads, overnight; NP-40 lysates of HEK 293 T cells transfected with HA-tagged sorting nexins; four washes with NP-40 lysis buffer; Western blot with anti-HA mAb 3F10; only the target purified

Molecule | binding
B1 | no binding

molecular target: T1, GST-hFasL(1-80) fusion protein (human); test: phage display library panning; GST-hFasL(1-80) covalently bound to epoxy magnetic beads (Dynabeads M-270); library of 288 human SH3 domains as pVIII fusions on phage, 6 x 10^9 PFU, 1.5 h at room temperature; washes with 0.15% or 0.5% Tween-20; bound clones sequenced; domains also found in the GST panning excluded; only the target purified

Molecule | binding
SH3 domain of tyrosine protein kinase Hck, displayed on phage (from UniProt P08631) (domain or fragment) | binds
SH3 domain of sorting nexin 9, displayed on phage (from UniProt Q9Y5X1) (domain or fragment) | binds
SH3 domain of SH3 domain-containing protein 7A5, displayed on phage (from UniProt Q6ZN28) (domain or fragment) | binds
SH3 domain of voltage-dependent L-type calcium channel subunit beta-3, displayed on phage (from UniProt P54284) (domain or fragment) | binds
second SH3 domain of RIMS-binding protein 3C, displayed on phage (from UniProt A6NJZ7) (domain or fragment) | binds
first SH3 domain of p47phox, displayed on phage (from UniProt P14598) (domain or fragment) | binds
second SH3 domain of intersectin 2, displayed on phage (from UniProt Q9NZM3) (domain or fragment) | binds
SH3 domain of tyrosine protein kinase Itk, displayed on phage (from UniProt Q08881) (domain or fragment) | binds
SH3 domain of Myosin XV, displayed on phage (from UniProt Q9UKN7) (domain or fragment) | binds
SH3 domain of tight junction protein ZO-3, displayed on phage (from UniProt O95049) (domain or fragment) | binds
SH3 domain of tyrosine protein kinase Btk, displayed on phage (from UniProt Q06187) (domain or fragment) | binds
SH3 domain of tyrosine protein kinase Lyn, displayed on phage (from UniProt P07948) (domain or fragment) | binds
SH3 domain of osteoclast-stimulating factor 1, displayed on phage (from UniProt Q92882) (domain or fragment) | binds
SH3 domain of CD2BP1, displayed on phage (human) (domain or fragment) | binds
SH3 domain of endophilin-A3, displayed on phage (from UniProt Q99963) (domain or fragment) | binds
SH3 domain of SLIT-ROBO Rho GAP 1, displayed on phage (from UniProt Q7Z6B7) (domain or fragment) | binds
SH3 domain of sorting nexin 33, displayed on phage (from UniProt Q8WV41) (domain or fragment) | binds

Molecule | binding
second SH3 domain of Nck2, displayed on phage (from UniProt O43639) (domain or fragment) | binds
SH3 domain of tyrosine protein kinase Tec, displayed on phage (from UniProt P42680) (domain or fragment) | binds
SH3 domain of SLIT-ROBO Rho GAP 2, displayed on phage (from UniProt O75044) (domain or fragment) | binds
SH3 domain of dedicator of cytokinesis protein 4, displayed on phage (from UniProt Q8N1I0) (domain or fragment) | binds
SH3 domain of tyrosine protein kinase Fyn, displayed on phage (from UniProt P06241) (domain or fragment) | binds
SH3 domain of tyrosine protein kinase Yes, displayed on phage (from UniProt P07947) (domain or fragment) | binds
SH3 domain of SAM domain-containing protein SAMSN-1, displayed on phage (from UniProt Q9NSI8) (domain or fragment) | binds
SH3 domain of Src kinase-associated phosphoprotein 2, displayed on phage (from UniProt O75563) (domain or fragment) | binds
SH3 domain of disks large homology 2, displayed on phage (from UniProt Q15700) (domain or fragment) | binds
fourth SH3 domain of dynamin-binding protein, displayed on phage (from UniProt Q6XZF7) (domain or fragment) | binds
SH3 domain of spectrin alpha chain, displayed on phage (from UniProt P02549) (domain or fragment) | binds
SH3 domain of Fyn-binding protein, displayed on phage (human) (domain or fragment) | binds
SH3 domain of PI3K regulatory subunit alpha, displayed on phage (from UniProt P27986) (domain or fragment) | binds
second SH3 domain of Nck1, displayed on phage (from UniProt P16333) (domain or fragment) | binds
first SH3 domain of kalirin, displayed on phage (from UniProt O60229) (domain or fragment) | binds
SH3 domain of ARHGAP9, displayed on phage (from UniProt Q9BRR9) (domain or fragment) | binds
SH3 domain of EGFR kinase substrate 8-like protein 3, displayed on phage (from UniProt Q8TE67) (domain or fragment) | binds

No constants are given. Whether binding was seen depends on the method and setting. For some assays here: Binding can be weak; no strength is given. Where a sequence is shown, tags or fusion partners need not be part of it. For some assays here: Binding seen in cells or lysates may run through a third protein.
